Taken from: PubChem BioAssay AID1259308 (NCATS, 2017)

- Test: 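Genes whose loss raises luciferase production in HEK293 cells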 (primary screen)
- Cells: human HEK293 embryonic kidney cells stably expressing firefly luciferase (HEK-CMV-Luc2-Hygro)
- Reagents: single siRNA against human genes, 0.8 pmol siRNA per well
- Duration: 72 h
- Detection: 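Luciferase light (ONE-Glo) measured on one replicate plate set and viability (CellTiter-Glo) on the other, scaled to a negative control siRNA, with robust z-scores and luciferase per cell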
- Reading the numbers: total luciferase, z-score and total luciferase, % of control: higher = more reporter protein produced
- Active means: 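Active when the median/MAD z-score for overall luciferase is greater than 3; a gene was taken forward for validation with new siRNAs if at least two of its three siRNAs passed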
- Meaning of the calls: active = raised luciferase; inactive = no rise
This is an unselected part of about 59,000 reagents. Of all reagents, about 1,510 (2.6%) got an active call. 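Calls use total luciferase alone and ignore viability, so some active siRNAs may act by altering cell number.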 The numbers tell different reagents against one gene apart. Further read-outs or replicates are left out here.

gene knocked down | siRNA no. | total luciferase, z-score | total luciferase, % of control | outcome
EFCAB3 (EF-hand calcium binding domain 3) | 1 | 0.283 | 87.5 | inactive
EFCAB3 (EF-hand calcium binding domain 3) | 2 | 0.0196 | 82.3 | inactive
EFCAB3 (EF-hand calcium binding domain 3) | 3 | -0.55 | 71 | inactive
VEPH1 (ventricular zone expressed PH domain containing 1) | 1 | -0.698 | 68 | inactive
VEPH1 (ventricular zone expressed PH domain containing 1) | 2 | 0.0607 | 83.1 | inactive
VEPH1 (ventricular zone expressed PH domain containing 1) | 3 | -0.177 | 78.4 | inactive
OSTCP1 (oligosaccharyltransferase complex subunit pseudogene 1) | 1 | 0.711 | 96 | inactive
OSTCP1 (oligosaccharyltransferase complex subunit pseudogene 1) | 2 | -0.112 | 79.7 | inactive
OSTCP1 (oligosaccharyltransferase complex subunit pseudogene 1) | 3 | -0.8 | 66 | inactive
HSPA12A (heat shock protein family A (Hsp70) member 12A) | 1 | -0.175 | 78.4 | inactive
HSPA12A (heat shock protein family A (Hsp70) member 12A) | 2 | -1.48 | 52.4 | inactive
HSPA12A (heat shock protein family A (Hsp70) member 12A) | 3 | -1.34 | 55.3 | inactive
INPP4A (inositol polyphosphate-4-phosphatase type I A) | 1 | -0.429 | 73.3 | inactive
INPP4A (inositol polyphosphate-4-phosphatase type I A) | 2 | -1.08 | 60.3 | inactive
INPP4A (inositol polyphosphate-4-phosphatase type I A) | 3 | 0.19 | 85.7 | inactive
SNX15 (sorting nexin 15) | 1 | -0.602 | 69.9 | inactive
SNX15 (sorting nexin 15) | 2 | 2.27 | 127 | inactive
SNX15 (sorting nexin 15) | 3 | 1.45 | 111 | inactive
SGCG (sarcoglycan gamma) | 1 | -1.59 | 50.3 | inactive
SGCG (sarcoglycan gamma) | 2 | 1.47 | 111 | inactive
SGCG (sarcoglycan gamma) | 3 | -0.647 | 69 | inactive
FADD (Fas associated via death domain) | 1 | 0.77 | 97.2 | inactive
FADD (Fas associated via death domain) | 2 | 1.99 | 121 | inactive
FADD (Fas associated via death domain) | 3 | 0.249 | 86.8 | inactive

Ordered by “total luciferase, z-score” (low to high): some entries from above.
gene knocked down | siRNA no. | total luciferase, z-score | total luciferase, % of control | outcome
FADD (Fas associated via death domain) | 1 | 0.77 | 97.2 | inactive
FADD (Fas associated via death domain) | 2 | 1.99 | 121 | inactive
